Test results from PMC11844288.
Results are given in words; binding and its absence hold for the method and conditions named. Binding seen in cells or lysates may run through a third protein. Some results given as binding are weak or reduced against the parent protein; the word gives no strength.

Amino acid sequences for entries named in this document (tags omitted).
UniProt P28482: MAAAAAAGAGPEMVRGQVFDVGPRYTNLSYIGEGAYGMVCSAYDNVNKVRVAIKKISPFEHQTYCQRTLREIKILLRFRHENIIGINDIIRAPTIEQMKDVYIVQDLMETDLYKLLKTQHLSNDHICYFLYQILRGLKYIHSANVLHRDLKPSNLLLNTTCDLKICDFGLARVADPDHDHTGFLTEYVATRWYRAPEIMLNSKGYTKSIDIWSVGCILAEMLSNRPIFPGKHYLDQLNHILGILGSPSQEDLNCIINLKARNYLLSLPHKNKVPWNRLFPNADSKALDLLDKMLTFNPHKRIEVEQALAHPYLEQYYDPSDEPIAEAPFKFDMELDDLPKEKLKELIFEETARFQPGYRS
UniProt Q99459: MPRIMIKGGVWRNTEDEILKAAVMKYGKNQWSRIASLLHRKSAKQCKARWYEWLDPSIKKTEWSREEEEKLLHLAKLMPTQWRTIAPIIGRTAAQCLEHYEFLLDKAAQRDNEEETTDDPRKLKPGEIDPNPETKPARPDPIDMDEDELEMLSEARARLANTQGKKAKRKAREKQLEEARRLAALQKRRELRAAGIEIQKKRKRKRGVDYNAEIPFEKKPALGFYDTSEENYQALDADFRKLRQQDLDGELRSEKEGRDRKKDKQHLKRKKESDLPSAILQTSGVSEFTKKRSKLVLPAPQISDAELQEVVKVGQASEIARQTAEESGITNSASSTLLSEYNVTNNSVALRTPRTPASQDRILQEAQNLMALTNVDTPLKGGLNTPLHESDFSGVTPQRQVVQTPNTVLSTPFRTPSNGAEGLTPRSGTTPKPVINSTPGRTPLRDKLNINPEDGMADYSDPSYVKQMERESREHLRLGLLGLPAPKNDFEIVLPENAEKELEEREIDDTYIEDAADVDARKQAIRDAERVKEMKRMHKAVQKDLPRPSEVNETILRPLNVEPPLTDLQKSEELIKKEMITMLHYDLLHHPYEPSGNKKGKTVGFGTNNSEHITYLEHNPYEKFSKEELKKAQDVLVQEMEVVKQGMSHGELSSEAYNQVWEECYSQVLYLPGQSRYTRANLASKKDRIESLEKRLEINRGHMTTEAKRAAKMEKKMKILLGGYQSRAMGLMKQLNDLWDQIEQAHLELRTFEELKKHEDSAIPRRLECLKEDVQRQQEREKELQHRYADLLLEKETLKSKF

Columns and labels:
[1] = target: MAPK1 (human (endogenous in gastric cancer cells)) (UniProt P28482); experiment: co-IP; protein A/G-agarose beads pre-incubated with antibodies 4 h at 4 C, overnight incubation with proteins (RIPA extract of GC cells) at 4 C, boiled in SDS, Western blot
[2] = target: Cell division cycle 5-like protein (CDC5L) (human) (UniProt Q99459); experiment: as above

binding [1]	binding [2]	Substance
binds	–	Cell division cycle 5-like protein (CDC5L) (from UniProt Q99459 1-802)
–	binds	MAPK1 (from UniProt P28482 1-360)
